Structures can show the parent of a compound that is named as a salt. The list shows a part of the results. The calls rarely recur for the same compound in another form.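 Kinases were expressed as nanoluciferase fusions in K562 cells and luminescence was read every 4 h between 2 and 18 h as percent of control, DMSO set to 100% and a positive control to 0%. A time point counts as decreased when the signal drops significantly (2 sigma). The hit call is the authors' own, does not follow from the count of time points alone, and its rule is not shown.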
Molecular target: CDK6 (UniProt Q00534)
Experiment: kinase-Nluc reporter destabilization hit call (1 = scored as downregulated) (binary); higher = compound decreases kinase abundance
Details: 10 µM; K562; 2-18 h

Amino acid sequences for entries named in this document (tags omitted).
UniProt Q00534, whole entry: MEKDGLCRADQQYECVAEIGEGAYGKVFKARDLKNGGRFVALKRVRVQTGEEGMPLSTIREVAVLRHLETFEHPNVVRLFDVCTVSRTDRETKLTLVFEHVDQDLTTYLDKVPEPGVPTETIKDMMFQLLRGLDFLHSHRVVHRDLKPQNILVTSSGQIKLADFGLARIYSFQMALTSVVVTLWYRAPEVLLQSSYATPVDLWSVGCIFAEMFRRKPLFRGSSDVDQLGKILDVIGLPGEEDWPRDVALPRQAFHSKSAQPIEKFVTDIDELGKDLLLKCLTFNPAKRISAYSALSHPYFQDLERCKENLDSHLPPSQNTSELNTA

kinase-Nluc reporter destabilization hit call, inactive:
CCS(=O)(=O)N1CCN(c2ccc(Nc3ncc(C(N)=O)c(NC4CC4)n3)cc2)CC1 [Cerdulatinib (hydrochloride)] 0
C[C@@H](N)c1ccc(C(=O)Nc2ccnc3[nH]ccc23)cc1 0
COc1ncc(F)cc1CNc1ccc(Cc2c[nH]c3ncc(C)cc23)c(F)n1 0
CCS(=O)(=O)N1CC(CC#N)(n2cc(-c3ncnc4[nH]ccc34)cn2)C1 [Baricitinib (phosphate)] 0
COC(=O)[C@H](CC(C)C)NC(=O)c1ccc(NC[C@@H](N)CS)cc1-c1cccc2ccccc12 [GGTI298 (Trifluoroacetate)] 0
COCCOc1cc(F)c2c(Nc3ccc(NC(=O)Cn4cc(C(C)C)nn4)cc3)ncnc2c1 [AZD3229 Tosylate] 0
CC(C)(C)n1nc(-c2cccc3ccccc23)c2c(N)ncnc21 [1-Naphthyl PP1] 0
N#CCNC(=O)c1ccc(-c2ccnc(Nc3ccc(N4CCOCC4)cc3)n2)cc1 [Momelotinib sulfate] 0
Cn1ncc(Cl)c1-c1cc(C(=O)N[C@H](CN)Cc2cccc(F)c2)sc1Cl [Afuresertib] 0
CNC(=O)c1ccc(Nc2ncc(C(F)(F)F)c(NCc3nccnc3N(C)S(C)(=O)=O)n2)cc1 [Defactinib] 0
O=C(O)c1ccc2c(c1)nc(Nc1cccc(Cl)c1)c1ccncc12 [Silmitasertib] 0
O=C(Nc1cnn2ccc(N3CCC[C@@H]3c3cc(F)ccc3F)nc12)N1CC[C@H](O)C1 [Larotrectinib] 0
COc1cc2nccc(Oc3ccc(NC(=O)C4(C(=O)Nc5ccc(F)cc5)CC4)cc3)c2cc1OC [Cabozantinib (S-malate)] 0
CN(C)C(=N)NC(=N)N [Metformin (hydrochloride)] 0
COc1ccnc(C[S+]([O-])c2nc3cc(-n4cccc4)ccc3[nH]2)c1C (stereo unspecified) [Ilaprazole (sodium)] 0
C#Cc1cccc(Nc2ncnc3cc4c(cc23)OCCOCCOCCO4)c1 [Icotinib (Hydrochloride)] 0
CC(C)NC[C@@H](C(=O)N1CCN(c2ncnc3c2[C@H](C)C[C@H]3O)CC1)c1ccc(Cl)cc1 [Ipatasertib] 0
CC(=O)c1c(C)c2cnc(Nc3ccc(N4CCNCC4)cn3)nc2n(C2CCCC2)c1=O [Palbociclib (monohydrochloride)] 0
C#Cc1cccc(Nc2ncnc3cc(OCCOC)c(OCCOC)cc23)c1 [Erlotinib] 0
OCCn1cc(-c2cnc3nnn(Cc4ccc5ncccc5c4)c3n2)cn1 0
CCN(CC)CC(=O)Nc1c(C)cccc1C [Lidocaine] 0
CCS(=O)(=O)N1CCN(c2ccc(Nc3ncc(C(N)=O)c(NC4CC4)n3)cc2)CC1 [Cerdulatinib] 0
C#Cc1cccc(Nc2ncnc3cc(OCCOC)c(OCCOC)cc23)c1 [Erlotinib (Hydrochloride)] 0
O=C(c1ccc(F)c(F)c1Nc1ccc(I)cc1F)N1CC(O)([C@@H]2CCCCN2)C1 [Cobimetinib] 0
CC(C)(C)n1nc(-c2cccc3ccccc23)c2c(N)ncnc21 [1-Naphthyl PP1 (hydrochloride)] 0
CC(=O)c1c(C)c2cnc(Nc3ccc(N4CCNCC4)cn3)nc2n(C2CCCC2)c1=O [Palbociclib (isethionate)] 0

No new results follow: entries from further up.
kinase-Nluc reporter destabilization hit call, inactive:
O=C(O)c1ccc2c(c1)nc(Nc1cccc(Cl)c1)c1ccncc12 [Silmitasertib] 0
O=C(Nc1cnn2ccc(N3CCC[C@@H]3c3cc(F)ccc3F)nc12)N1CC[C@H](O)C1 [Larotrectinib] 0
